Data taken from ChEMBL document CHEMBL3988442, “University of Dundee, Small-Polar-MMV Screening Library” (2021).

Mtb glucose medium: 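Phenotypic screen: M. tuberculosis growth, glucose 7H9 medium, 3 days; the read-out is not stated. Concentration: 50 µM. The record gives no direction; compounds that gave an IC50 in retests scored well above the rest, so higher reads as more growth inhibition. Size under these conditions: about 69,000 compounds, about 760 of them at 50% or above in at least one test.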
Mtb cholesterol medium: 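Growth of Mycobacterium tuberculosis over 4 days (cholesterol / DPPC medium with tyloxapol); the read-out is not stated. Compounds at 50 µM. Direction is inferred from retests: higher values go with more growth inhibition. Size under these conditions: about 69,000 compounds, about 370 of them at 50% or above in at least one test.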

The filed quantity is “Percent Effect” (%). The controls that fix the scale are not given in the record; negative values are as filed. This is an unselected part of the compounds tested. Two or more numbers in one place are separate tests of the same structure; such repeats can differ widely. A dash means the value is not listed here; it may have been measured.

compound	Mtb glucose medium	Mtb cholesterol medium
O=C(Cc1ccccc1F)N1CCN(Cc2noc(C3CC3)n2)CC1	-10.24%	-23.92%
CC(NCc1ccsc1)c1ccc(OCc2nccn2C)cc1 (centres undefined)	-8.772%	0.5894%
Cc1nc(CNC(=O)CCCc2cccs2)no1	12.15%	12.99%
CC1CCCN(CCNC(=O)c2ccn(-c3cccc(F)c3)n2)C1 (centres undefined)	6.23%	-10.7%
CS(=O)(=O)CC1CCCN(C(=O)Cn2cccc(C(F)(F)F)c2=O)C1 (centres undefined)	-9.432% and -45.04%	-12.12% and -18.7%
Cn1cc(CN2CCC(F)(F)C3(CCN(c4cccnc4)C3)C2)cn1.O=C(O)C(F)(F)F.O=C(O)C(F)(F)F (centres undefined)	37.61%	27.8%
COC(=O)c1ccc(OC)c(Cn2cc(Br)cn2)c1	16.98% and 10.65%	15.63%
Cc1cnn(CC2CCCN2c2ccc(C#N)cn2)c1 (centres undefined)	-8.393%	3.75% and 6.164%
O=C(C1CCCO1)N1CCC(O)(Cn2ccc3ccncc32)CC1 (centres undefined)	-14.98%	-13.83%
Cc1cn2c(n1)CCC(NC(=O)c1oc(Br)cc1C)C2 (centres undefined)	-14.05%	8.223%
CCN(C(=O)CN1CCCC1c1ccc(OC)cc1)c1ccccc1 (centres undefined)	-4.875%	-8.976%
CCNC(=O)[C@@H]1C[C@@H](NC(=O)CSC)CN1Cc1ccncc1	-14.39%	1.953%
CC(=O)Nc1cc(C(=O)N2CCOCC2c2ccc(C)o2)ccc1F (centres undefined)	-0.9823%	13.37%
CC1CN(Cc2cnn(C)c2)CCN1c1ccc2nncn2n1 (centres undefined)	5.407%	-0.8864%
CSCC[C@@H](CO)n1ccnc1-c1ccc(C)o1	-7.419% and -5.884%	21.39%
COCCN1CCc2cc(C(=O)NC(C)C)c(NCC3CC3)nc2CC1.O=C(O)C(F)(F)F.O=C(O)C(F)(F)F	39.8%	26.25%
COc1ccc(-c2nnc(CNCCn3cccn3)o2)cc1	40.54%	-11.65%
Cc1cc(-c2cnc(N3CCNC(=O)C3)nc2-c2ccncc2)on1	-19.48%	1.203%
O=C(O)C(F)(F)F.[H][C@@]12OCCN(C(=O)c3ccc(C)o3)[C@@]1([H])CC[C@@H]2OCc1ccccn1	15.98%	-3.898%
CCCC1(C(=O)O)CCCN(C(=O)c2cc(Cl)ccc2F)C1 (centres undefined)	-9.314%	-35.79%
[H][C@@]12CN(Cc3ccccc3C)C[C@]1([H])OCC(=O)N2CC(N)=O	23.12% and 5.229%	-15.85%
CCc1nnc(Nc2cc(C)nc(C3CCN(c4ncccn4)C3)n2)s1 (centres undefined)	-30.47%	-18.93%
Cn1ccc(C(=O)Nc2cc(F)ccc2OCC2CCCO2)cc1=O (centres undefined)	-2.509%	2.588%
CCSCCC(C)NC(=O)Nc1cccn(C)c1=O (centres undefined)	-52% and -6.603%	-3.516%
Cc1cc(S(=O)(=O)N2CCc3ccc(F)cc32)cc(C(=O)O)c1C	19.47%	12.01%
Cc1csc2c(C3CCN(C(=O)Cn4cncn4)CC3)nc(C)n12	16.74%	-3.64%
CCC(=O)N1CCC(Cc2ccccc2-c2ccncc2)(C(=O)NC)C1 (centres undefined)	18.04%	-12.27%
COCCN1CC(Nc2nc(C3CCCC3)nc3c2cnn3C)CC1=O (centres undefined)	31.53%	26.33%
O=C(NC1CCC(O)CC1)c1cnc2c(cnn2C2CCCC2)c1 (centres undefined)	25.96%	25.53%
COCC(=O)N1CCc2nc(C)nc(NC(C)C)c2CC1	-11%	3.191%
Cc1nc(N2CCCOC(Cn3cccn3)C2)c2sccc2n1 (centres undefined)	8.698%	-10.02%
C[C@@H]1CN(c2nc(O)cc(Cc3ccccc3F)n2)C[C@H](C)O1	-31.01%	3.608%
CNC(=O)c1ccc(CNC(=O)c2ccc(Cl)cc2F)cc1	-14.18%	-0.4141%
O=C(C1CCOC1)N1CCC2(CCN(Cc3nccs3)C2)CC1 (centres undefined)	-8.748%	-11.98%
Cc1sc(CN)nc1-c1ccccc1	-41.1%	6.052%
CC(C)c1nc2c(n1C)CCN(Cc1nc(-c3ccco3)no1)C2	-1.287% and -27.78%	-1.039%
O=C(O)C(F)(F)F.O=C(O)C(F)(F)F.[H][C@@]12CC(COc3ccccn3)C[C@@]1([H])N(CC1CCOCC1)CCO2 (some centres undefined)	7.47%	9.692%
O=C(NCCn1ccnc1-c1cc2n(n1)CCCNC2)c1ccncc1	-31.67% and -0.3133%	-8.161%
CC1(C)CN(Cc2ccncc2)CCS1(=O)=O	-15.83%	-
N#Cc1csc(CNCCOc2ccc(Cl)cn2)c1	19.61%	19.11%
Cc1cc(S(=O)(=O)N(CC(N)=O)CC(C)C)ccc1Br	-29.87%	-15.61%
CC(=O)c1cn(CCC(=O)N[C@@H](CC(C)C)C(=O)O)c2ccccc12	36.26%	12.87%
CSC1(CNC(=O)NC(C)c2ccc(F)cc2)CCOCC1 (centres undefined)	-7.821%	5.808%
CSCc1noc(Cn2ccc3ccccc3c2=O)n1	-6.662%	-39.64%
[H][C@]12CCN(S(C)(=O)=O)[C@@]1([H])CC[C@H](COCC(=O)N1CCCC1)O2	-42.92%	-13.39%
Cn1cc(C(=O)N2CCCCC2CCc2ccccc2)cn1 (centres undefined)	-22.46%	0.6317%
CC(C)C1CN(S(=O)(=O)c2ccc(C#N)cc2)CCS1 (centres undefined)	19.65% and 28.98%	1.052%
CCSc1ccccc1C(=O)NCC1CCN(Cc2ccsc2)CC1	36.62%	11.94%
COCCNC(=O)N1CCOCC1c1c(C)nn(C)c1C (centres undefined)	8.434% and -23.88%	-0.6261%
CN(C)C[C@@H]1CN(C(=O)c2cc(S(N)(=O)=O)ccc2F)C[C@@H]1CO	-1.624%	6.771%
Cc1cnc(N2CCC3(CC2)COCCN(C(C)C)C3)nc1.O=C(O)C(F)(F)F	-12.28%	-17.11%
[H][C@@]12CS(=O)(=O)C[C@]1([H])N(Cc1ccc(CC)cc1)CCN2CCOC	16.75%	21.61%

Once more, the final 4:

{"compound": "COCCNC(=O)N1CCOCC1c1c(C)nn(C)c1C", "stereo": "centres undefined", "Mtb glucose medium": "8.434 and -23.88", "Mtb cholesterol medium": -0.6261}
{"compound": "CN(C)C[C@@H]1CN(C(=O)c2cc(S(N)(=O)=O)ccc2F)C[C@@H]1CO", "Mtb glucose medium": -1.624, "Mtb cholesterol medium": 6.771}
{"compound": "Cc1cnc(N2CCC3(CC2)COCCN(C(C)C)C3)nc1.O=C(O)C(F)(F)F", "Mtb glucose medium": -12.28, "Mtb cholesterol medium": -17.11}
{"compound": "[H][C@@]12CS(=O)(=O)C[C@]1([H])N(Cc1ccc(CC)cc1)CCN2CCOC", "Mtb glucose medium": 16.75, "Mtb cholesterol medium": 21.61}